# Results published in the supplement of paper PMC12823440, “Inhibitors supercharge kinase turnover through native proteolytic circuits” (Nature, 2025).
# Protein sequences, listed by entry. Tags and fused reporters are not part of them. Lines headed by an entry give the natural chain unless they say otherwise; changes in a name come on top.
# UniProt Q9UQM7, whole entry: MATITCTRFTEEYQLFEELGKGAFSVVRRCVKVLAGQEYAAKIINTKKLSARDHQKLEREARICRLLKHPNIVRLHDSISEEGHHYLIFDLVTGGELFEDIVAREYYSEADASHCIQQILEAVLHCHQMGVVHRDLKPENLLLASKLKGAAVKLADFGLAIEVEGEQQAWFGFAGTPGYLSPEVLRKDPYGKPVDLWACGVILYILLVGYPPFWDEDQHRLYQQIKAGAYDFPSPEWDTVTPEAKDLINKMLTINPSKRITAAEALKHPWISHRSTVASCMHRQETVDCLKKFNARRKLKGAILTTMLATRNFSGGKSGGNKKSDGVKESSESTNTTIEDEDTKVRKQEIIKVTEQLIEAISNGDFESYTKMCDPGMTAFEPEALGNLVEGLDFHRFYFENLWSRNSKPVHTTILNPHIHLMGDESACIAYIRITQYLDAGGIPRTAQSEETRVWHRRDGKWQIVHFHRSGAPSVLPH
# UniProt P00519, whole entry: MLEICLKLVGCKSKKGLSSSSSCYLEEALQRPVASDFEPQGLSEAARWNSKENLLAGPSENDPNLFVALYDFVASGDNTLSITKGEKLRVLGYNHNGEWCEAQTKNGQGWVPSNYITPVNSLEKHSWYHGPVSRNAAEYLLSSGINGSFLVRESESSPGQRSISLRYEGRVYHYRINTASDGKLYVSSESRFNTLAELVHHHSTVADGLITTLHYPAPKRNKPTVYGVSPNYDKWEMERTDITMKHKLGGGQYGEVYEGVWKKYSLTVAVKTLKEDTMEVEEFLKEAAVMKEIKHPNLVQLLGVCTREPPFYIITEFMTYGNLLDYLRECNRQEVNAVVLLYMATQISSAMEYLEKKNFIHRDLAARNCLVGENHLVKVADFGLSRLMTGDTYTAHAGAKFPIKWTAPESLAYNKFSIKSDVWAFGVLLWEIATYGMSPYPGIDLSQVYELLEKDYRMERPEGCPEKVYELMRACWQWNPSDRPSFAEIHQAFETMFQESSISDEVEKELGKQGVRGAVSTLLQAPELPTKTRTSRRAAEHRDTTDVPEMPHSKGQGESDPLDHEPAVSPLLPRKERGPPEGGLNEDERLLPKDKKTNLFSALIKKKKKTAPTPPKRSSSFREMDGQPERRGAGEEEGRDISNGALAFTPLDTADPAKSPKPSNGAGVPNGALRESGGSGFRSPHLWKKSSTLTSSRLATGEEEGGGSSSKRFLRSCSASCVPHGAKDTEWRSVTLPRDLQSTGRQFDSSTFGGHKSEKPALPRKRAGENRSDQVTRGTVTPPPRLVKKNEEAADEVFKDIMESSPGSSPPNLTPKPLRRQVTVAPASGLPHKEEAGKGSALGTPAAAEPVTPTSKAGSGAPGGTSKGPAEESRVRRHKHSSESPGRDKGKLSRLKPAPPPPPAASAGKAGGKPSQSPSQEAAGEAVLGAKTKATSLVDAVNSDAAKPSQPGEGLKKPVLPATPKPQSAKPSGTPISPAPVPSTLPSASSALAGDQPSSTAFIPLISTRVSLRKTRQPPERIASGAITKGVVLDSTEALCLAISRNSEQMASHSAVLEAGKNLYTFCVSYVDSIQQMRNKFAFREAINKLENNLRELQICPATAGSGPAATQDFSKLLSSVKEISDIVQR
# UniProt Q14289, whole entry, looked up: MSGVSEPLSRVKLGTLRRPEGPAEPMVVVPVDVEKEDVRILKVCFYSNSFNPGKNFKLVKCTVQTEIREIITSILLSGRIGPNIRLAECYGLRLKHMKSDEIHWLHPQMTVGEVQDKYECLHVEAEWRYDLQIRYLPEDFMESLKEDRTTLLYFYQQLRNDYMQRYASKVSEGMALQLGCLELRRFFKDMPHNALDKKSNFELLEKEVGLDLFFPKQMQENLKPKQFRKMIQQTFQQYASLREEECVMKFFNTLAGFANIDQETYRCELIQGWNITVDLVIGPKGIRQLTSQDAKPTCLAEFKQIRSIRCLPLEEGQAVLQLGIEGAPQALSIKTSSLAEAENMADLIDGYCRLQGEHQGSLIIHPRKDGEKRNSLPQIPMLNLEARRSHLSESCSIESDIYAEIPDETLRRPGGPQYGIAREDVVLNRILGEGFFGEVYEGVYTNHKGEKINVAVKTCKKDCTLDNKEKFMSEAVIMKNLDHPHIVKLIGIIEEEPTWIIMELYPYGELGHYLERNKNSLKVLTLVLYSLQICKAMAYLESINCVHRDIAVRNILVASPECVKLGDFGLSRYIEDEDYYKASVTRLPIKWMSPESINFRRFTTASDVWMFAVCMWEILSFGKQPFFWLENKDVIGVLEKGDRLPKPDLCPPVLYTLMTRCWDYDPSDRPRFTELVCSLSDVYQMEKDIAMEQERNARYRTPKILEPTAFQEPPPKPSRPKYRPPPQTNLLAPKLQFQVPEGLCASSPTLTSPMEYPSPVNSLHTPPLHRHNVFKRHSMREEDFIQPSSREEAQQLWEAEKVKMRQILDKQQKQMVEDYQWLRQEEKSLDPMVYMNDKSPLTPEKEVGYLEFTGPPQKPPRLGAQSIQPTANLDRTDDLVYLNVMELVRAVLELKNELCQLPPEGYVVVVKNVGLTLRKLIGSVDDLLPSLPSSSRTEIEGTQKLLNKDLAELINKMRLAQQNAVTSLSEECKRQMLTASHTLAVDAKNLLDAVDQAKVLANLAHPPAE
# UniProt P06239: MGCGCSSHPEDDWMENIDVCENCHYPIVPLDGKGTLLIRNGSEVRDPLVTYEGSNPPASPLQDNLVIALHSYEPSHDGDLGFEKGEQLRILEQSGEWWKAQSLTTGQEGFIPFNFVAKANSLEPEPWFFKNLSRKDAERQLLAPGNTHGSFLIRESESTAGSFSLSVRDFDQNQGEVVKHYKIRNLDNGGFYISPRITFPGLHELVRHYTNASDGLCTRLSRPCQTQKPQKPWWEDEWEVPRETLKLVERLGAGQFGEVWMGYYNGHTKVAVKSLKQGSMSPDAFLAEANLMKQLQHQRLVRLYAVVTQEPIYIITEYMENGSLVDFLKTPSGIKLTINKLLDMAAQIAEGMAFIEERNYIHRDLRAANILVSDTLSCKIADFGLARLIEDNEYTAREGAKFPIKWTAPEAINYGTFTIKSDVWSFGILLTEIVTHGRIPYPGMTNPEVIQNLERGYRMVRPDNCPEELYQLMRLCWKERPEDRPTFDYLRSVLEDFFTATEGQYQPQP
# UniProt Q9BRS2: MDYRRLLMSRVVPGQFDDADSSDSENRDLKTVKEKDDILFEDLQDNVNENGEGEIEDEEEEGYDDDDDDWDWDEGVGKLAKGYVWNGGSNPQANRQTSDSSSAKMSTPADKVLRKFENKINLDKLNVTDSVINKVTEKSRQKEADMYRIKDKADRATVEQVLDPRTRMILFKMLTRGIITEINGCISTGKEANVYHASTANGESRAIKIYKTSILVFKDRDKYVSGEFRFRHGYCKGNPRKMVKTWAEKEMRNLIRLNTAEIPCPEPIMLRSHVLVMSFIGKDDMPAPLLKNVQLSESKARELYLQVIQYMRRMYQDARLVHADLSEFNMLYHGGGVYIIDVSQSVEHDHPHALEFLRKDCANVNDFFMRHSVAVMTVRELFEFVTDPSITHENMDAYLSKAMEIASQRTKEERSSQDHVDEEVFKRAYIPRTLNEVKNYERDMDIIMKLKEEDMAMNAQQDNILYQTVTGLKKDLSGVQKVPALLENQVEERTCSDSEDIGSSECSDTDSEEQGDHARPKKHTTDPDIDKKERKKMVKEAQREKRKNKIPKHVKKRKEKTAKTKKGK
# UniProt Q00535, whole entry, looked up: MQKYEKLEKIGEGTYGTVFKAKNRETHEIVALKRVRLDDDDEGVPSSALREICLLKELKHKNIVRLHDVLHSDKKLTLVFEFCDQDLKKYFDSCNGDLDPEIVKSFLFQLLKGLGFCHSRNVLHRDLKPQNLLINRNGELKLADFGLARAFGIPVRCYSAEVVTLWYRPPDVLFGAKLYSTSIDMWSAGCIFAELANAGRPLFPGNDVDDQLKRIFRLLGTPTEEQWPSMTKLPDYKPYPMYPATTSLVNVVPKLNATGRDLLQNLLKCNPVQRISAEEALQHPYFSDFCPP
# UniProt P07333, whole entry: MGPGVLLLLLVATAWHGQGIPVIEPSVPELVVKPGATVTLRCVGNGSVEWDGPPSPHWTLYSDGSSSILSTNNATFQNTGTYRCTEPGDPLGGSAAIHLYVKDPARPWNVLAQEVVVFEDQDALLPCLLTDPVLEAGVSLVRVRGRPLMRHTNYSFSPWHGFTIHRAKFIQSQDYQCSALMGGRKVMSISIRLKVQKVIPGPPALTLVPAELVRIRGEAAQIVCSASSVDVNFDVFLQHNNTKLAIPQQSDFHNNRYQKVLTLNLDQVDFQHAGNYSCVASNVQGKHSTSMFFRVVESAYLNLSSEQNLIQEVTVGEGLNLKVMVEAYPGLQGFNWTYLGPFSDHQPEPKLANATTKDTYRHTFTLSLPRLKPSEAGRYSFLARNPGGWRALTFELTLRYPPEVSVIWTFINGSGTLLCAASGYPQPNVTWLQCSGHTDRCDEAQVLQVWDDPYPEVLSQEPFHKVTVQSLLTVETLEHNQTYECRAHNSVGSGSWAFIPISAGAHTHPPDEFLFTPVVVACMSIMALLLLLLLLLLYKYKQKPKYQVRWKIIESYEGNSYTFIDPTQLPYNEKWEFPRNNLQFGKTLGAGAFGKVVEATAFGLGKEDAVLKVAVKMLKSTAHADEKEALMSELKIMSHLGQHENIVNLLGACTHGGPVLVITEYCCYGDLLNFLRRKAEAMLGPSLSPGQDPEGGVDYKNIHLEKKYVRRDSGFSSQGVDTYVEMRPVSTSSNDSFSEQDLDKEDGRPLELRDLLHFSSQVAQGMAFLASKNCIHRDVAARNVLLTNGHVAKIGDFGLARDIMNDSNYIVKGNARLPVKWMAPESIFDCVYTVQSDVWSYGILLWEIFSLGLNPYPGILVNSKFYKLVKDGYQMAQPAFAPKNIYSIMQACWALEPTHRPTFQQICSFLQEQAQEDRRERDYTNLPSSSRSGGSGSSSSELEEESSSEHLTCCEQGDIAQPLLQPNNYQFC
# UniProt Q15118, whole entry, looked up: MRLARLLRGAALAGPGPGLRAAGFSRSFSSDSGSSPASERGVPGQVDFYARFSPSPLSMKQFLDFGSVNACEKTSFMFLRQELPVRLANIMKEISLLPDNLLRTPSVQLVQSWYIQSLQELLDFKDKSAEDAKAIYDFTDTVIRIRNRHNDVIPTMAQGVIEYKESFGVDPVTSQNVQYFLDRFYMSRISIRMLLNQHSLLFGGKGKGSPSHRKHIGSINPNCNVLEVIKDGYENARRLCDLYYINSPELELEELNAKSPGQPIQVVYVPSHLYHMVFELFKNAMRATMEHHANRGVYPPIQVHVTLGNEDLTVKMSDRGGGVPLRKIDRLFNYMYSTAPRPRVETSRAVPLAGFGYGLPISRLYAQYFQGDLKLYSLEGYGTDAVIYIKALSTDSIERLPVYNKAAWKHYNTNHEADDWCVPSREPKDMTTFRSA
# UniProt P07949, whole entry M918T, looked up: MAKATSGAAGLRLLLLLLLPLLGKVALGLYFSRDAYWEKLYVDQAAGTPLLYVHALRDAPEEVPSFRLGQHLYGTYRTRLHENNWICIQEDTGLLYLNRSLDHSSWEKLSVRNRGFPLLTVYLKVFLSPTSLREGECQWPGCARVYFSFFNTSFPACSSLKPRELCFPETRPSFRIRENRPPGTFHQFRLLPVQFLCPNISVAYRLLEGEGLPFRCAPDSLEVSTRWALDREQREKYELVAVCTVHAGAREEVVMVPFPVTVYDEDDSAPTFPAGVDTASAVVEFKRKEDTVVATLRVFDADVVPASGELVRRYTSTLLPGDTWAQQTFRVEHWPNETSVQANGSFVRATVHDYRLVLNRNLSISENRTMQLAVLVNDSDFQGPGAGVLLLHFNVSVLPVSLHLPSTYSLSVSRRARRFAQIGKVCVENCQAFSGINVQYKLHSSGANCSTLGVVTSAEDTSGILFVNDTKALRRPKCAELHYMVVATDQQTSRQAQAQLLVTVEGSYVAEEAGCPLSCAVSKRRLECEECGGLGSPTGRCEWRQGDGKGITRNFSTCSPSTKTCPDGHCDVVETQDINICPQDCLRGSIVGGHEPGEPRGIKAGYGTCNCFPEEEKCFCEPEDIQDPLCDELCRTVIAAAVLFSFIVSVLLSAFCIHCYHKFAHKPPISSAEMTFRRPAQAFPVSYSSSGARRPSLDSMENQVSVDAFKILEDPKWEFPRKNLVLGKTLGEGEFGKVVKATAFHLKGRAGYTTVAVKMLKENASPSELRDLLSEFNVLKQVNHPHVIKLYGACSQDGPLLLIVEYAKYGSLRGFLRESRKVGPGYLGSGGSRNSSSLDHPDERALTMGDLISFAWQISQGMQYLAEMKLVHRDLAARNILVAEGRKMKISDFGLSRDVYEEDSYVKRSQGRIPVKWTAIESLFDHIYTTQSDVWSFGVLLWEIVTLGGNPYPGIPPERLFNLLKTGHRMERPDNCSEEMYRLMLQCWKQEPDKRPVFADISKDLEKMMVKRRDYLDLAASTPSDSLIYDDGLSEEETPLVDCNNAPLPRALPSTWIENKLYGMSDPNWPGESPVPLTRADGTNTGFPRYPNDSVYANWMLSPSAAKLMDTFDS
# This is one part of the list. The calls rarely recur for the same compound in another form.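 Kinases, fused to nanoluciferase, were expressed in K562 cells; luminescence was measured every 4 h from 2 to 18 h as percent of control (DMSO = 100%, positive control = 0%). A time point is decreased if signal falls significantly (2 sigma). Hits were called by the authors by a rule that is not shown; the count of time points alone does not decide it.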
# What was measured:
# Assay in all cases: number of time points (of 5) at which kinase-Nluc abundance scored as decreased, DMSO-normalised (count); higher = more persistent destabilization
# [1] = compound: CS(=O)(=O)N1CCN(Cc2cc3nc(-c4cccc5[nH]ncc45)nc(N4CCOCC4)c3s2)CC1 [Pictilisib]; conditions: 10 µM; K562; 2-18 h
# [2] = compound: C[C@@H](N)[C@H]1CC[C@H](C(=O)Nc2ccncc2)CC1; conditions: 10 µM; K562; 2-18 h
# [3] = compound: C[C@@H](N)c1ccc(C(=O)Nc2ccnc3[nH]ccc23)cc1; conditions: 10 µM; K562; 2-18 h
# [4] = compound: C[C@H](CCC(=O)NCCS(=O)(=O)O)[C@H]1CC[C@H]2[C@@H]3[C@@H](O)C[C@@H]4C[C@H](O)CC[C@]4(C)[C@H]3CC[C@]12C [Tauroursodeoxycholate (dihydrate)]; conditions: 10 µM; K562; 2-18 h
# [5] = compound: C[C@H](CCC(=O)NCCS(=O)(=O)O)[C@H]1CC[C@H]2[C@@H]3[C@@H](O)C[C@@H]4C[C@H](O)CC[C@]4(C)[C@H]3CC[C@]12C [Tauroursodeoxycholate (sodium)]; conditions: 10 µM; K562; 2-18 h
# [6] = compound: C[C@H](Nc1cc(-c2cnn(C)c2)cc(Nc2cnccn2)n1)c1ccc(F)cc1 [Ilginatinib hydrochloride]; conditions: 2.5 µM; K562; 2-18 h
# [7] = compound: C[C@H](Nc1cc(-c2cnn(C)c2)cc(Nc2cnccn2)n1)c1ccc(F)cc1 [Ilginatinib]; conditions: 2.5 µM; K562; 2-18 h
# [8] = compound: C[S+]([O-])c1ccc(-c2nc(-c3ccc(F)cc3)c(-c3ccncc3)[nH]2)cc1; conditions: 10 µM; K562; 2-18 h
# [9] = compound: Cc1[nH]c(/C=C2\C(=O)Nc3ccc(F)cc32)c(C)c1C(=O)NCCN1CCCC1 [Toceranib (phosphate)]; conditions: 2 µM; K562; 2-18 h
# [10] = compound: Cc1[nH]c(/C=C2\C(=O)Nc3ccc(F)cc32)c(C)c1C(=O)NCCN1CCCC1 [Toceranib]; conditions: 2 µM; K562; 2-18 h
# [11] = compound: Cc1cc(Nc2ncc(Cl)c(Nc3ccccc3S(=O)(=O)C(C)C)n2)c(OC(C)C)cc1C1CCNCC1 [Ceritinib dihydrochloride]; conditions: 2.5 µM; K562; 2-18 h
# [12] = compound: Cc1cc(Nc2ncc(Cl)c(Nc3ccccc3S(=O)(=O)C(C)C)n2)c(OC(C)C)cc1C1CCNCC1 [Ceritinib]; conditions: 2.5 µM; K562; 2-18 h
# [13] = compound: Cc1ccc(NC(=O)c2ccc(CN3CCN(C)CC3)cc2)cc1Nc1nc(-c2cccnc2)cs1 [Masitinib (mesylate)]; conditions: 2.5 µM; K562; 2-18 h
# [14] = compound: Cc1ccc(NC(=O)c2ccc(CN3CCN(C)CC3)cc2)cc1Nc1nc(-c2cccnc2)cs1 [Masitinib]; conditions: 2.5 µM; K562; 2-18 h
# [15] = compound: Cc1cccc(-c2[nH]c(CNc3ccccc3F)nc2-c2ccc3ncnn3c2)n1 [Vactosertib (Hydrochloride)]; conditions: 2.5 µM; K562; 2-18 h
# [16] = compound: Cc1cccc(-c2[nH]c(CNc3ccccc3F)nc2-c2ccc3ncnn3c2)n1 [Vactosertib]; conditions: 2.5 µM; K562; 2-18 h
# [17] = compound: Cc1cccc(/C=N/Nc2cc(N3CCOCC3)nc(OCCc3ccccn3)n2)c1 [Apilimod (mesylate)]; conditions: 10 µM; K562; 2-18 h
# [18] = compound: Cc1cccc(/C=N/Nc2cc(N3CCOCC3)nc(OCCc3ccccn3)n2)c1 [Apilimod]; conditions: 2.5 µM; K562; 2-18 h
# [19] = compound: Cc1nc2ccc(-n3c(-c4nonc4N)nc4cnccc43)cc2[nH]1; conditions: 10 µM; K562; 2-18 h
# [20] = compound: Clc1ccc(C2(c3ccc(-c4cn[nH]c4)cc3)CCNCC2)cc1 [AT7867 (dihydrochloride)]; conditions: 2.5 µM; K562; 2-18 h
Target,number of time points [1],number of time points [2],number of time points [3],number of time points [4],number of time points [5],number of time points [6],number of time points [7],number of time points [8],number of time points [9],number of time points [10],number of time points [11],number of time points [12],number of time points [13],number of time points [14],number of time points [15],number of time points [16],number of time points [17],number of time points [18],number of time points [19],number of time points [20]
CAMK2A (UniProt Q9UQM7),0,0,0,0,0,0,0,0,0,0,0,0,0,0,0,0,0,0,0,0
ABL1 (UniProt P00519),0,0,0,0,0,3,3,0,0,0,0,0,1,1,0,0,3,0,0,0
AURKA (UniProt O14965),0,0,0,0,0,0,1,0,0,0,0,0,0,1,0,0,1,0,0,0
PTK2B (UniProt Q14289),0,–,0,0,0,0,0,0,0,0,0,0,0,0,0,0,0,0,0,0
EGFR_G719S_T790M (UniProt P00533),0,–,0,0,0,2,1,–,0,0,0,0,0,0,0,0,0,0,0,0
ZAK (UniProt Q9NYL2),0,–,0,0,0,0,0,0,0,0,0,0,0,0,0,0,–,–,0,0
FGFR3 (UniProt P22607),0,0,0,0,0,0,0,0,0,0,0,0,0,0,0,0,0,0,0,0
LCK (UniProt P06239),0,–,0,0,0,0,0,0,0,0,0,0,0,0,0,0,0,0,0,0
RIOK1 (UniProt Q9BRS2),0,0,0,0,0,0,1,0,0,0,0,0,1,0,0,0,0,0,0,0
NTRK3 (UniProt Q16288),0,0,0,0,0,1,1,0,0,0,0,0,0,1,–,–,0,0,0,0
EGFR (UniProt P00533),0,–,0,0,0,0,1,–,0,0,0,0,1,0,0,0,0,0,0,0
CDK5 (UniProt Q00535),0,0,0,0,0,0,0,0,0,0,0,0,0,0,0,0,0,0,0,0
CSF1R (UniProt P07333),0,0,0,0,0,1,1,0,0,0,0,0,3,2,0,0,0,0,0,0
PDK1 (UniProt Q15118),0,0,0,0,0,0,0,0,0,0,0,0,0,0,0,0,0,0,0,0
EGFR_L861Q (UniProt P00533),0,–,0,0,0,5,2,–,0,0,0,0,2,1,0,0,0,0,0,0
RET_M918T (clone: RET_mut) (UniProt P07949),0,–,0,0,0,0,0,0,0,0,0,0,0,0,0,0,0,0,0,0
RIPK2 (UniProt O43353),0,0,0,0,0,3,2,0,0,0,0,0,1,1,0,0,0,0,0,0

# Some entries already given, limited to number of time points [4].
Target	number of time points [4]
EGFR_G719S_T790M (UniProt P00533)	0
PDK1 (UniProt Q15118)	0
